# “And” between values parts separate entries of the source, which are not always exact repeats. Identical values can stand only once. This list was built around the results that the source calls inconclusive (neither active nor inactive); the mix of calls is not that of the screen. A potency beside an inconclusive call is a rough fit, not a confirmed value. More than one record can exist for a structure, and the calls need not agree. The source made the active and inactive calls. How the source made its calls: active means hit-call score of the fitted dose curve at least 0.9, where 1 is the maximum; inconclusive means response in the unintended direction; inactive means score below 0.9.
# By UniProt entry, the sequences of proteins in these tests, tags left out. Where a name states a change or a piece, a line headed by the entry shows the natural chain unless it says otherwise.
# UniProt Q96RI1: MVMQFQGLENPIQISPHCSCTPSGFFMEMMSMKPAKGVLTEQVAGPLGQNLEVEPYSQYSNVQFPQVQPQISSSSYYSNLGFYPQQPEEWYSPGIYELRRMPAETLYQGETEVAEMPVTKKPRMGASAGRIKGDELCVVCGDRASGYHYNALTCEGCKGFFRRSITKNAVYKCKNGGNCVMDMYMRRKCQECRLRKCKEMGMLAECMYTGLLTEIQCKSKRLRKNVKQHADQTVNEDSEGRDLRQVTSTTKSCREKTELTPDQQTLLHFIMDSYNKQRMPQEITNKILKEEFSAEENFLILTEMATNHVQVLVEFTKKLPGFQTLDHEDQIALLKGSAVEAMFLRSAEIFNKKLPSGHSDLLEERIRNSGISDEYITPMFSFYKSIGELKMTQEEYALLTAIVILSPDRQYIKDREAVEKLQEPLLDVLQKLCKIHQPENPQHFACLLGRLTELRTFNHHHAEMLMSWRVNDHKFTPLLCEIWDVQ
# UniProt P19793: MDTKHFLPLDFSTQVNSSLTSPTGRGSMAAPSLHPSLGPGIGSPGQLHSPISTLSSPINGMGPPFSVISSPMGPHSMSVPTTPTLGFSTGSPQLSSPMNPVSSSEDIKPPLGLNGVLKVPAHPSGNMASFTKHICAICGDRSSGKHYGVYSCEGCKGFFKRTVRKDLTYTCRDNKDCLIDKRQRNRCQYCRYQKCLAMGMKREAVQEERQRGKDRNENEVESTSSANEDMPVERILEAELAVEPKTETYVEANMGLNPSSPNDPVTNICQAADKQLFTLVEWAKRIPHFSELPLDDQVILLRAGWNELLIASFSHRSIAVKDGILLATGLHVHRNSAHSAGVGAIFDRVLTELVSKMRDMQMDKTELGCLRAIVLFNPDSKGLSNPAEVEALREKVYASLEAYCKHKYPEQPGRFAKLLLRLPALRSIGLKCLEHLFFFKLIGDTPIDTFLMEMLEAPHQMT
# UniProt P04637, whole entry, looked up: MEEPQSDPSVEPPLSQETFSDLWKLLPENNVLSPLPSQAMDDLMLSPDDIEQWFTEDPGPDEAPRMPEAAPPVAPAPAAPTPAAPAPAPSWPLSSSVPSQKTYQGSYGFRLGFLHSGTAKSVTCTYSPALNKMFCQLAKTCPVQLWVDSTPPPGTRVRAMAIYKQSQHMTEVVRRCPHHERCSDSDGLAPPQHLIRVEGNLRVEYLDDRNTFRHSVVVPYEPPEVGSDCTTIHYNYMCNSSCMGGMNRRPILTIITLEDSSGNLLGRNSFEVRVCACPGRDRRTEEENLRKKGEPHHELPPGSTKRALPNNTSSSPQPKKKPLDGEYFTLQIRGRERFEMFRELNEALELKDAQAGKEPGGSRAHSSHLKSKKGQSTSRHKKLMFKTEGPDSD
# Legend:
# [1] = biological target: Bile acid receptor (Homo sapiens) (UniProt Q96RI1); assay: OT_FXR_FXRSRC1_0480: Odyssey Thera (OT) 8-hour HEK293T Protein-Complementation Assay for Farnesoid X receptor/SRC-1 Co-activator (AID 2283383)
# Procedure, shortened: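 PCA, HEK293T, 8 h compound exposure; FXR–SRC-1 binding reconstitutes split reporter; fluorescence intensity; positive-direction fit vs DMSO.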
# [2] = biological target: Bile acid receptor (Homo sapiens) (UniProt Q96RI1); assay: OT_FXR_FXRSRC1_1440: Odyssey Thera (OT) 24-hour HEK293T Protein-Complementation Assay for Farnesoid X receptor/SRC-1 Co-activator (AID 2283384)
# Procedure, shortened: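 Measures ligand-driven FXR–SRC-1 co-activator recruitment in HEK293T via fragment complementation, fluorescence intensity at 24 h. DMSO served as negative control and baseline for gain-of-signal fitting.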
# [3] = biological target: Retinoic acid receptor RXR-alpha (Homo sapiens) (UniProt P19793); assay: OT_NURR1_NURR1RXRa_0480: Odyssey Thera (OT) 8-hour HEK293T Protein Complementation Assay for Nurr1/retinoid X receptor (RXR) (AID 2283385)
# Procedure, shortened: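 Interaction of bait and prey reconstitutes a functional reporter, whose fluorescence was measured in HEK293T cells dosed with compound for 8 hours. Signal gain relative to DMSO defined the single endpoint.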
# [4] = TOX21_p53_BLA_p2_viability: Viability Assessment in the Tox21 HCT-116 p53 Agonism Beta-lactamase Assay, Phase 2 (AID 2283591);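 further: actives lower the ATP signal meaning cytotoxicity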
# Procedure, shortened: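 HCT116 p53-bla cells, 4000/well, dosed after 5 h plating (217-fold dilution of DMSO stocks) and incubated 16 h at 37C. Viability taken as cellular ATP by CellTiter-Glo luminescence after 30 min RT; signal loss marks cytotoxicity.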
# [5] = TOX21_p53_BLA_p3_viability: Viability Assessment in the Tox21 HCT-116 p53 Agonism Beta-lactamase Assay, Phase 3 (AID 2283593);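 further: cells exposed to compound for 16 h before reading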
# Procedure, shortened: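 HCT116 cells, 4000/well, dosed 5 h after plating by pin transfer (217-fold dilution from DMSO stock) and incubated 16 h at 37C, 5% CO2. Viability read as ATP luminescence with CellTiter-Glo after 30 min at room temperature.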
# [6] = biological target: Cellular tumor antigen p53 (Homo sapiens) (UniProt P04637); assay: TOX21_p53_BLA_p3_ratio: Tox21 HCT-116 p53 Agonism Beta-lactamase Assay, Ratio, Phase 3 (AID 2283596)
# Procedure, shortened: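 Cells were seeded at 4000/well, rested 5 h at 37C, then dosed with DMSO compound solutions (217-fold dilution) for 16 h. CCF4-AM substrate was loaded for 2 h at room temperature, and the 460/530 nm emission ratio was fitted for gain of signal versus DMSO.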
# [7] = TOX21_p53_BLA_p4_viability: Viability Assessment in the Tox21 HCT-116 p53 Agonism Beta-lactamase Assay, Phase 4 (AID 2283597);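 further: hits lower the luminescence signal meaning cytotoxicity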
# Procedure, shortened: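 4000 HCT116 cells per well; 5 h attachment; compounds from DMSO, 217-fold dilution; 16 h at 37C. Then CCF4-AM, 2 h RT, followed by CellTiter-Glo, 30 min RT, luminescence. Decrease = cytotoxicity.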
# [8] = TOX21_p53_BLA_p5_viability: Viability Assessment in the Tox21 HCT-116 p53 Agonism Beta-lactamase Assay, Phase 5 (AID 2283600)
# Procedure, shortened: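 Decreased CellTiter-Glo luminescence denotes lost viability. Exposure: 16 h at 37C, 5% CO2, with compounds from DMSO stocks diluted 217-fold in wells of 4000 cells.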
# [9] = biological target: Cellular tumor antigen p53 (Homo sapiens) (UniProt P04637); assay: TOX21_p53_BLA_p4_ratio: Tox21 HCT-116 p53 Agonism Beta-lactamase Assay, Ratio, Phase 4 (AID 2283601)
# Procedure, shortened: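 HCT-116 p53 beta-lactamase reporter cells (4000/well) preincubated 5 h, then compound (217-fold dilution of DMSO stock) for 16 h at 37C. CCF4-AM substrate added 2 h at room temperature; 460/530 nm emission ratio fitted upward versus DMSO.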
# [10] = biological target: Retinoic acid receptor RXR-alpha (Homo sapiens) (UniProt P19793); assay: OT_NURR1_NURR1RXRa_1440: Odyssey Thera (OT) 24-hour HEK293T Protein Complementation Assay for Nurr1/retinoid X receptor (RXR) (AID 2283386)
# Procedure, shortened: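 Steps: fragment-tagged Nurr1 and RXRα expressed in HEK293T; compounds added; after 24 h, complemented reporter quantified by fluorescence intensity; signal increase over DMSO fitted as the single endpoint.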
# [11] = LTEA_HepaRG_LDH_cytotoxicity: Cytotoxicity Assessment in the Life Technologies and Expression Analysis (LTEA) Assay (AID 2283563);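 further: LDH activity released into spent culture medium as a marker of cell death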
# Procedure, shortened: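 Differentiated HepaRG cells in serum-free induction medium, exposed 48 h in duplicate to 8 half-log concentrations up to 100 uM in 0.5% DMSO. Cytotoxicity from LDH measured in spent medium, fit relative to DMSO.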
# [12] = biological target: Cellular tumor antigen p53 (Homo sapiens) (UniProt P04637); assay: TOX21_p53_BLA_p2_ratio: Tox21 HCT-116 p53 Agonism Beta-lactamase Assay, Ratio, Phase 2 (AID 2283592)
# Procedure, shortened: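 First, HCT116 reporter cells settle for 5 h at 37C. Next, DMSO compound solutions are pinned in (217-fold dilution) and left 16 h. Finally, CCF4-AM substrate is loaded 2 h at room temperature and the 460/530 nm ratio read.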
# [13] = biological target: Cellular tumor antigen p53 (Homo sapiens) (UniProt P04637); assay: TOX21_p53_BLA_p5_ratio: Tox21 HCT-116 p53 Agonism Beta-lactamase Assay, Ratio, Phase 5 (AID 2283599)
# Procedure, shortened: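 HCT-116 p53-bla cells (4000/well) plated 5 h, dosed with compound (217-fold DMSO dilution) for 16 h at 37 C; CCF4-AM substrate 2 h at room temperature. Activity is the 460/530 nm emission ratio (405 nm excitation), fitted in gain-of-signal direction versus DMSO.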
# [14] = ATG_XTT_Cytotoxicity: Cytotoxicity Assessment in the Attagene TRANS-FACTORIAL HepG2 Assay (AID 2283584);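 further: XTT signal for cell number as viability in transfected HepG2 cells; cells exposed to compound for 24 h before reading; active means loss of viability signal versus DMSO baseline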
# Procedure, shortened: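 HepG2 cells transiently transfected with GAL4-UAS multiple reporter units, dosed 24 h; cytotoxicity read by XTT as loss of signal versus DMSO baseline.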
structure (smiles),measurement,setting,value
CCCC=NO,AC50,[1],inconclusive: 9.92 µM
same,AC50,[2],inconclusive: 0.347 µM
same,outcome,[3],inactive
same,AC50,[4],inconclusive: 1.93e-05 µM
same,outcome,[4],inactive
same,AC50,[5],inconclusive: 46.1 µM
same,outcome,[5],inactive
same,AC50,[6],inconclusive: 46.1 µM
same,outcome,[6],inactive
same,AC50,[7],inconclusive: 46.1 µM
same,AC50,[8],inconclusive: 56.7 µM
same,outcome,[8],inactive
same,AC50,[9],inconclusive: 46.1 µM and inconclusive: 21.1 µM
CCOc1nc(F)cc2nc(S(=O)(=O)Nc3c(Cl)cccc3Cl)nn12,AC50,[1],inconclusive: 50 µM
same,AC50,[2],inconclusive: 21.8 µM
same,outcome,[10],inactive
same,AC50,[11],inconclusive: 0.00374 µM
same,AC50,[4],inconclusive: 46.1 µM
same,AC50,[12],inconclusive: 46.1 µM
same,AC50,[5],inconclusive: 46.1 µM
same,AC50,[8],inconclusive: 46.1 µM
O=C1c2ccccc2C(=O)N1SC(Cl)(Cl)Cl,AC50,[1],inconclusive: 50 µM
same,AC50,[3],inconclusive: 12.9 µM and inconclusive: 5.14 µM
same,AC50,[10],inconclusive: 14.4 µM and inconclusive: 14.3 µM
same,outcome,[4],inactive
same,AC50,[12],active: 7.1 µM and active: 14.8 µM
same,AC50,[6],active: 6.49 µM and active: 23.1 µM
same,AC50,[7],inconclusive: 84.5 µM
same,outcome,[7],inactive
same,AC50,[13],active: 14.1 µM and active: 12.9 µM
same,AC50,[8],inconclusive: 80.9 µM and inconclusive: 73 µM
same,AC50,[9],active: 13.5 µM and active: 22.1 µM
COC(N)=O,AC50,[1],inconclusive: 50 µM
same,AC50,[2],inconclusive: 23.6 µM
same,AC50,[8],inconclusive: 46.1 µM
CC1(c2ccc(Oc3ccccc3)cc2)OC(=O)N(Nc2ccccc2)C1=O (stereo unspecified),AC50,[1],active: 1.94 µM
same,AC50,[3],inconclusive: 50.5 µM and inconclusive: 30.5 µM
same,AC50,[10],inconclusive: 1.47 µM and inconclusive: 18.4 µM
same,outcome,[4],inactive
same,AC50,[12],active: 16.9 µM
same,outcome,[6],inactive
same,AC50,[7],active: 19.5 µM
same,AC50,[13],active: 46.4 µM
same,AC50,[9],active: 51.2 µM
N#CC(CCc1ccc(Cl)cc1)(Cn1cncn1)c1ccccc1 (stereo unspecified),AC50,[1],inconclusive: 91.7 µM
same,AC50,[2],inconclusive: 92 µM
same,AC50,[3],inconclusive: 79.8 µM and inconclusive: 32.7 µM
same,AC50,[10],inconclusive: 50 µM and inconclusive: 22.8 µM
same,AC50,[4],active: 56 µM
same,outcome,[6],inactive
same,AC50,[7],active: 39.1 µM
same,outcome,[13],inactive
same,AC50,[9],active: 71.5 µM
CC(C)(OO)c1ccccc1,AC50,[1],inconclusive: 28.9 µM
same,AC50,[2],inconclusive: 19.9 µM
same,outcome,[5],inactive
same,AC50,[7],inconclusive: 46.1 µM
same,AC50,[8],inconclusive: 46.1 µM
same,outcome,[9],inactive
O=C1C2(Cl)C3(Cl)C4(Cl)C(Cl)(Cl)C5(Cl)C3(Cl)C1(Cl)C5(Cl)C24Cl (stereo unspecified),AC50,[1],active: 10.7 µM
same,AC50,[2],inconclusive: 22.5 µM and inconclusive: 84.4 µM
same,AC50,[10],inconclusive: 31.2 µM [middle of 4 runs]
same,AC50,[14],active: 31.8 µM and active: 35.1 µM
same,AC50,[4],active: 73.9 µM and active: 73.7 µM
same,AC50,[12],active: 82.6 µM and active: 60.4 µM
same,AC50,[5],active: 80.6 µM and active: 78.5 µM
same,AC50,[6],active: 72.4 µM and active: 85.4 µM
same,AC50,[7],active: 68.4 µM and active: 66.4 µM
same,AC50,[13],active: 83.8 µM and active: 85 µM
same,AC50,[8],active: 82 µM and active: 83.7 µM
same,AC50,[9],active: 83.2 µM and active: 60.3 µM
COc1cccc(C(=O)NN(C(=O)c2cc(C)cc(C)c2)C(C)(C)C)c1C,AC50,[1],active: 14.7 µM
same,AC50,[3],inconclusive: 50 µM
same,outcome,[3],inactive
same,AC50,[10],inconclusive: 50 µM
same,outcome,[4],inactive
same,outcome,[12],inactive
same,AC50,[6],inconclusive: 46.1 µM
same,AC50,[7],inconclusive: 46.1 µM
same,AC50,[13],inconclusive: 83.3 µM
same,outcome,[8],inactive
same,outcome,[9],inactive
CCCN(CCC)c1c([N+](=O)[O-])cc(C(F)(F)F)cc1[N+](=O)[O-],AC50,[1],active: 30.7 µM
same,outcome,[2],inactive
same,outcome,[3],inactive
same,AC50,[14],inconclusive: 100 µM
O=P(O)(Oc1ccccc1)Oc1ccccc1,AC50,[1],inconclusive: 50 µM
same,AC50,[3],inconclusive: 50 µM
same,outcome,[10],inactive
same,outcome,[12],inactive
same,AC50,[5],inconclusive: 46.1 µM
same,AC50,[7],inconclusive: 46.1 µM
same,AC50,[13],inconclusive: 46.1 µM
same,AC50,[8],inconclusive: 46.1 µM
CCCN(CCOc1c(Cl)cc(Cl)cc1Cl)C(=O)n1ccnc1,AC50,[1],active: 11.7 µM
same,AC50,[3],active: 11.9 µM and inconclusive: 79 µM
same,AC50,[10],inconclusive: 13.7 µM
same,outcome,[10],inactive
same,outcome,[4],inactive
same,AC50,[6],active: 75 µM
same,outcome,[6],inactive
same,outcome,[7],inactive
same,AC50,[13],active: 75.3 µM
same,AC50,[8],inconclusive: 46.9 µM
same,AC50,[9],active: 74.6 µM
N#Cc1c(Cl)c(Cl)c(Cl)c(C#N)c1Cl,AC50,[1],inconclusive: 11.9 µM
same,AC50,[2],inconclusive: 23.8 µM
same,AC50,[10],inconclusive: 50 µM and inconclusive: 9.67 µM
same,AC50,[4],active: 22.5 µM
same,AC50,[12],active: 15.7 µM
same,AC50,[5],active: 20.7 µM and active: 23.1 µM
same,AC50,[6],active: 815 nM and active: 77.5 µM
same,AC50,[7],active: 2.04 µM and active: 2.82 µM
same,AC50,[13],active: 85.4 µM and active: 17.1 µM
same,AC50,[8],active: 17.1 µM and active: 15.8 µM
same,AC50,[9],active: 1.11 µM and active: 1.12 µM

# Reference: PubChem BioAssay (EPA / NIEHS)
